Screen size: about 320,000 compounds; about 2,100 (0.66%) were called active. The shares of active, inactive and inconclusive entries below differ from those in the screen. The call rests on the fitted dose curve; in most records, active means well fitted inhibition curve with a large enough effect in the signal ratio, with a control signal flat (not every such curve was filed as active); inconclusive means small, poorly fitted or top-dose-only effect, or effect the other way, or a change in a side signal; inactive means flat fitted curve, though single readings scatter; the % refers to the signal ratio. Where the call is inconclusive, the potency comes from a doubtful curve fit.
assay: qHTS Assay for Lipid Storage Modulators in Drosophila S3 Cells; settings: BODIPY lipid droplet fluorescence, 18-24 h, cells fed with added oleic acid; lipid storage change, negative = inhibition: at 46.1 µM (top of the series) unless noted
Outline: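 Drosophila S3 cells got compounds at several concentrations plus oleic acid (400 uM solution). Laser-scanning cytometry with 488 nm excitation read lipid droplets at 500-530 nm and cells at 575-640 nm. Percent activity was relative to 20 uM Triacsin C.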
On the % scale 0 is the no-effect control and ±100 the full control effect; potency means the concentration at half of the fitted maximal effect.

Potency, active:
COc1ccc(C2C(C(=O)NCc3cccnc3)c3ccccc3C(=O)N2C)cc1OC (stereo not drawn) 2.59 µM

Potency, inconclusive:
O=C(Cn1ccc2ccccc2c1=O)NCC(=O)N1CCN(c2ccccc2F)CC1 0.103 µM [falling, full curve, poor fit], COC(=O)Cn1c(=NC(=O)c2sc3ccccc3c2Cl)sc2cc(S(N)(=O)=O)ccc21 0.103 µM [activator, full curve, poor fit], COc1ccc(C2C3=C(N=C4SCC(=O)N42)c2ccccc2CC3)cc1OC (stereo not drawn) 2.31 µM [activator, partial curve], COc1ccc(-c2csc(N(CC3CCCO3)C(=O)c3ccc(C)cc3)n2)cc1 (stereo not drawn) 29.1 µM [falling, single point], N#Cc1c(Cl)nc(N/N=C/c2ccccc2)c(Cl)c1Cl 29.1 µM [falling, single point], CN(C)c1ccc(/C=N/n2c(COc3ccccc3)n[nH]c2=S)cc1 0.651 µM [activator, partial curve], C=CCOc1ccc(CNc2nn[nH]n2)cc1 3.26 µM [falling, single point], CC(C)C(NS(=O)(=O)c1ccc2c(c1)C(C)(C)C(=O)N2C)C(=O)NCc1ccccc1Cl (stereo not drawn) 0.92 µM [activator, full curve], Cc1ccc2nc(SCC(=O)Nc3cccc(S(=O)(=O)N(C)C)c3)[nH]c2c1 29.1 µM [falling, single point], Cc1noc(C)c1C(=O)N(CC(=O)Nc1ccc(Cl)c(C(F)(F)F)c1)Cc1ccco1 3.66 µM [falling, full curve], CCOC(=O)C1(CC2CCCCO2)CCN(S(=O)(=O)c2ccc(C)s2)CC1 (stereo not drawn) 29.1 µM [falling, single point], COC(=O)c1nn(-c2ccc(OC)cc2)c(=O)cc1Oc1cccc(Cl)c1 32.6 µM [falling, single point], CN(Cc1cnn(Cc2ccccc2)c1)C(=O)c1cccc(S(=O)(=O)N2CCOCC2)c1 0.82 µM [falling, full curve, poor fit], Cc1occc1-c1nnc(SCC(=O)N2CCCCC2C)o1 (stereo not drawn) 1.64 µM [falling, partial curve, poor fit], COc1ccc(CCNC(=O)CSc2ccc(NC(C)=O)cc2)cc1OC 0.731 µM [activator, full curve], CC(=O)Nc1ccc(-c2csc(-c3cccnc3)n2)cc1 16.4 µM [falling, single point], Cc1ccc(C)c(OC(C)C(=O)Nc2nccs2)c1 (stereo not drawn) 0.92 µM [activator, full curve, poor fit], O=C(O)C1CCCCC1C(=O)Nc1ccc(OCc2ccccc2)cc1 (stereo not drawn) 29.1 µM [activator, single point], CCOc1ccc(C(=O)Nc2ccccc2OC(F)F)cc1 4.11 µM [rising, full curve, poor fit], O=C(NCC1CCCO1)c1nn2c(C(F)(F)F)cc(-c3cccs3)nc2c1Cl (stereo not drawn) 2.06 µM [falling, full curve], C=C(C)COc1ccc(-c2nc(N)ncc2-c2ccc(Br)cc2)c(O)c1 0.651 µM [falling, full curve, poor fit], CCCOc1ccc(S(=O)(=O)NCCCN2CCOCC2)c2ccccc12 4.11 µM [falling, full curve], CCOC(=O)N1CCN(C(=O)CN(C)S(=O)(=O)c2ccc(OCC)cc2)CC1 29.1 µM [activator, partial curve], COc1cc(C2c3c(n[nH]c3C)C(=O)N2c2ccc(Br)cc2)ccc1O (stereo not drawn) 1.84 µM [rising, partial curve], OCc1ccccc1N=Cc1cccnc1 29.1 µM [falling, single point], O=C(NCCCN1CCOCC1)c1ccc2c(c1)N(Cc1cccc(F)c1)C(=O)c1ccccc1S2 0.92 µM [activator, full curve], Cc1ccc(C(C)NC(=O)c2ccncc2)cc1C (stereo not drawn) 7.31 µM [activator, partial curve], CCSCCOC(=O)C1=C(C)NC(=O)NC1c1cccc(OC)c1OC (stereo not drawn) 0.731 µM [activator, full curve, poor fit], COc1cc(Cl)c(C)cc1NC(=O)CN1C(=O)C2CCCCC2C1=O (stereo not drawn) 0.231 µM [activator, full curve, poor fit]

Lipid storage change, negative = inhibition, inconclusive:
COc1ccc(C2=NOC(C(=O)N3CCN(c4ccccc4OC)CC3)C2)cc1 (stereo not drawn) -1.74%, Cc1noc(C)c1CCC(=O)N1CCCC(N2CCN(c3ccc(F)cc3)CC2)C1 (stereo not drawn) 21.1%, Cc1[nH]n(-c2ccccc2)c(=O)c1C(C[N+](=O)[O-])c1ccccc1Cl (stereo not drawn) 83.9%, CCOC(=O)/C=C1\CN(Cc2ccc(OC)cc2)S(=O)(=O)c2ccccc21 10.1%, CCn1cc(C(=O)O)c(=O)c2cc(F)c(N3CCN(C(=S)NC(=O)c4ccc(F)cc4)CC3)cc21 -13.8%, COC(=O)c1cc(COC(=O)c2nc3nccc(C)n3n2)oc1C 4.34%, Cc1ccc(N2C(=O)CC(Sc3ccccc3C(=O)O)C2=O)cc1C (stereo not drawn) -37.6% [at 9.22 µM], O=C(NCC1CCCN1S(=O)(=O)c1cccs1)c1c(F)cccc1F (stereo not drawn), O=C(Cn1cnc2c(cnn2-c2ccc(F)cc2)c1=O)N1CCCc2ccccc21 -25.6%, CC(C)NC(=O)CNc1ccc(C(F)(F)F)cc1[N+](=O)[O-] 107%, CN(C)C(CNC(=O)CCCN1C(=O)c2cccc3cccc(c23)C1=O)c1ccccc1 (stereo not drawn) -9.33%, CCN(CC)S(=O)(=O)c1ccc(C)c(NC(=O)COC(=O)[C@@H]2CCCN2C(=O)c2cccs2)c1 50.2%, CCOC(=O)c1nnc2ccnn2c1N 2.31%, Cc1ccc(-n2c(Cl)c(Cl)[nH]c(=O)c2=O)cc1 31%, O=[N+]([O-])c1cc(-c2n(-c3ccccn3)c3ccccc3[n+]2-c2ccccn2)ccc1Cl 24.5%, COc1cc(/C=N/NC(=O)c2ccc(Cl)c(S(N)(=O)=O)c2)ccc1OCC(N)=O -6.2%, O=C(Cn1c(NCCCO)nc2ccccc21)c1cccc(Br)c1 15.6%, Cn1c(SCC(=O)Nc2ccc3cn[nH]c3c2)nnc1-c1cnccn1 17.8%, CCc1nnc(NC(=O)C(C)N2C(=O)C3C4C=CC(C4)C3C2=O)s1 (stereo not drawn) 12.3%, COc1ccc(C(=O)NCc2ccc3c(c2)OCO3)cc1S(=O)(=O)N(C)Cc1ccccc1 18.3%, Cc1nc(Oc2ccccc2)c2ccccc2n1 -0.633%, CC(O)CSc1nc2c(c(=O)[nH]c(=O)n2C)n1Cc1ccccc1Cl (stereo not drawn) -19.9%, CC(c1ccccc1)N1CC(C(=O)O)CC1=O (stereo not drawn) 33.4%, CC(=O)c1c(C)[nH]c(C(=O)CN2C(=O)NC(C)(CCC(C)C)C2=O)c1C (stereo not drawn) 21.4%, CCOC(=O)Cc1nnc(NC(=O)COc2ccc(F)cc2)s1 13.8%, CC1CCCN(CCCNC(=O)c2ccc(N3CCCC3=O)cc2)C1 (stereo not drawn) -22.4%, CCOC(=O)c1nnn(-c2nc(OC)nc(N3CCCCC3)n2)c1-c1ccccc1 -7.51%, COc1cc(OC)cc(C(=O)N2CCN(S(C)(=O)=O)CC2)c1 -10.7%, COc1cccc(CNc2ccc(S(=O)(=O)N3CCN(C)CC3)cn2)c1 -52.1%, COc1cc(/C=C2\SC(=S)N(Nc3ncc(C(F)(F)F)cc3Cl)C2=O)cc(OC)c1OC 12.3%, C/C(=N\NC(=O)Cc1cccn1C)c1ccc2ccccc2c1 -0.189%, Cc1ccc(C)c(NC(=O)CN(C)C(=O)C2CCN(S(=O)(=O)c3ccc4c(c3)OCCO4)CC2)c1 30.1%, COc1ccccc1N1CCN(C(=O)c2cn(C)c3ccc(S(=O)(=O)N4CCOCC4)cc3c2=O)CC1 61.7%, COc1ccc(CCNS(=O)(=O)c2csc(C(N)=O)c2)cc1OC 46.2%, CCSc1nnc(NC(=O)C(C)C)s1 94.1%, COc1ccc(CCNC(=O)CCNC(=O)c2ccco2)cc1 41.2%, O=C(Nc1ccncc1)c1cc2ccccc2o1 14.7%, Nc1nonc1/C(=N/O)N1CCN(CCO)CC1 0.686%, Cn1c(=O)[nH]c(=O)c2c1nc(SCC(N)=O)n2Cc1cccc(Br)c1 -34.3%, Cc1c([N+](=O)[O-])cc(S(=O)(=O)Nc2ccncc2)cc1[N+](=O)[O-] -27.5% [at 9.22 µM]

Lipid storage change, negative = inhibition, inactive:
O=C(CNc1cccc(S(=O)(=O)N2CCCC2)c1)Nc1cccc(Br)c1 12.9%, O=C1C(=O)N(CCN2CCOCC2)C(c2ccccn2)/C1=C(/O)c1ccccc1 (stereo not drawn) 3.62%, CCOc1ccccc1NS(=O)(=O)c1ccc2c(c1)n(C)c(=O)c(=O)n2C 0.5%

Reference: PubChem BioAssay AID2685 (National Center for Advancing Translational Sciences (NCATS), 2010)
